Measured values from PubChem BioAssay AID256 (DTP/NCI, 2004).
The list does not hold the whole screen: it is rich in T/C values a quarter to a half above the control, in often repeated tests (any T/C) and in doses without a T/C. Further doses and runs are listed elsewhere. T/C gives the treated animals as a percentage of the vehicle group. Some doses have a count of surviving animals in place of a T/C: the source files T/C as zero there, which appears to mark a toxic dose or a test without result, not a measured value. Some survivor counts are full or nearly so, which does not show that the dose was tolerated: survival well below the control is almost never listed, so the zero probably covers shortened survival too. Counts of survivors are from the toxicity check (mostly the fifth day) where no day follows; animals may have died later. Schedules are NCI's codes, read here as Q, the interval in days (D) or hours (H), X, the number of doses. Some entries were tested several times; the values are given in rising order. Where survival is the endpoint, the PubChem record calls one and a half times the control and up active, and a quarter to a half above the control has no call in these data; cut-offs in other NCI protocols can differ.

System: CD2F1 mice, L1210 leukemia ip, survival T/C
Assay: NCI In Vivo Anticancer Drug Screen. Data for tumor model L1210 Leukemia (intraperitoneal) in CD2F1 (CDF1) mice
Conditions: higher T/C = longer survival
Procedure, shortened: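 Activity against a transplanted murine tumor was judged by comparing the compound group with a vehicle group. The outcome in the treated animals was divided by that in the controls.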

[1] = T/C endpoint: mean survival time, dose: 400.0 mg/kg/injection, schedule: Q04DX002 (ip), vehicle: saline
[2] = T/C endpoint: mean survival time, dose: 200.0 mg/kg/injection, schedule: Q04DX003 (ip), vehicle: saline with Tween-80
[3] = T/C endpoint: mean survival time, dose: 400.0 mg/kg/injection, schedule: Q04DX003 (ip), vehicle: saline with Tween-80
[4] = T/C endpoint: mean survival time, dose: 200.0 mg/kg/injection, schedule: Q01DX009 (ip), vehicle: saline with Tween-80
[5] = T/C endpoint: mean survival time, dose: 400.0 mg/kg/injection, schedule: Q01DX009 (ip), vehicle: saline with Tween-80
[6] = T/C endpoint: mean survival time, dose: 150.0 mg/kg/injection, schedule: Q01DX001 (ip), vehicle: saline
[7] = T/C endpoint: mean survival time, dose: 300.0 mg/kg/injection, schedule: Q01DX001 (ip), vehicle: saline

For `C=CCN(CC=C)P(=O)(N(CC=C)CC=C)N1CC1`, the survivor count (T/C endpoint: mean survival time, dose: 25.0 mg/kg/injection, schedule: Q01DX015 (ip), vehicle: saline) was 5 of 6 and the survivor count (T/C endpoint: mean survival time, dose: 37.5 mg/kg/injection, schedule: Q01DX015 (ip), vehicle: saline) was 3 of 6.
`ClCc1cnc[nH]1` was tested, and the survivor count [1] was 0 of 3.
In the case of `CCN(CC)Cc1ccccc1COC(=O)c1ccccc1`, the survivor count [1] is reported as 0 of 3.
In the case of `O=C1CC2C3=C(CCC3)CCN2C2=C1CC(OC(=O)c1ccccc1)CC2` (centres undefined), the survivor count (T/C endpoint: mean survival time, dose: 100.0 mg/kg/injection, schedule: Q04DX003 (ip), vehicle: saline with Tween-80) is reported as 6 of 6, the survivor count [2] is reported as 6 of 6 and the survivor count [3] is reported as 6 of 6.
In the case of `Nc1[nH]c(=O)ncc1C(=O)NCC(=O)O`, the survivor count (T/C endpoint: mean survival time, dose: 100.0 mg/kg/injection, schedule: Q01DX009 (ip), vehicle: saline with Tween-80) is reported as 0 of 6, the survivor count [4] is reported as 0 of 6 and the survivor count [5] is reported as 2 of 6.
With `C[N+](C)(C)CC(=O)N/N=C\c1c(O)ccc2ccccc12` the survivor count [2] was 2 of 3 and the survivor count [3] was 0 of 3.
`CCOC(=O)/C(=C/C(C#N)=C/N(C)C)CC` was tested, and the survivor count (T/C endpoint: mean survival time, dose: 400.0 mg/kg/injection, schedule: Q04DX003 (ip), vehicle: saline sonified) was 6 of 6.
In the case of `O=C(O)c1ccccc1C(c1ccccc1)c1ccccc1`, the survivor count [4] is reported as 2 of 6.
In the case of `[B-][N+]12CN3CN(CN(C3)C1)C2`, the survivor count [6] is reported as 1 of 6 and the survivor count [7] is reported as 0 of 6.
For `CCC12CN3CCc4c([nH]c5ccccc45)C(C(=O)OC)(c4cc5c(cc4OC)N(C)C4C(O)(C(=O)OC)C(OC(C)=O)C6(CC)C=CCN7CCC54C76)CC(C3)C1O2.CI.CO.[I][Hg][I]` (centres undefined), the survivor count (T/C endpoint: mean survival time, dose: 200.0 mg/kg/injection, schedule: Q01DX001 (ip), vehicle: saline) was 1 of 6 and the survivor count (T/C endpoint: mean survival time, dose: 400.0 mg/kg/injection, schedule: Q01DX001 (ip), vehicle: saline) was 0 of 6.
With `CCCC(CCC)NCCO` the survivor count [7] was 0 of 6.
For `C=COC(N)=O`, the T/C (T/C endpoint: mean survival time, dose: 75.0 mg/kg/injection, schedule: Q01DX001 (ip), vehicle: saline) was 125 % of control, the survivor count [6] was 0 of 6 and the survivor count [7] was 0 of 6.
With `O=C(O)C[Se](=O)O` the survivor count (T/C endpoint: mean survival time, dose: 50.0 mg/kg/injection, schedule: Q01DX001 (ip), vehicle: saline with Tween-80) was 1 of 3, the survivor count (T/C endpoint: mean survival time, dose: 100.0 mg/kg/injection, schedule: Q01DX001 (ip), vehicle: saline with Tween-80) was 1 of 3 and the survivor count (T/C endpoint: mean survival time, dose: 200.0 mg/kg/injection, schedule: Q01DX001 (ip), vehicle: saline with Tween-80) was 0 of 3. For the same molecule, the survivor count (T/C endpoint: mean survival time, dose: 400.0 mg/kg/injection, schedule: Q01DX001 (ip), vehicle: saline with Tween-80) was 0 of 3.
`CNC(=O)c1cccc2c(Nc3ccc(NS(C)(=O)=O)cc3OC)c3cccc(C)c3nc12` was tested, and the T/C (T/C endpoint: median survival time, dose: 1.5 mg/kg/injection, schedule: Q01DX009 (ip), vehicle: water) was 135 % of control, the T/C (T/C endpoint: median survival time, dose: 3.12 mg/kg/injection, schedule: Q01DX009 (ip), vehicle: water) was 133 % of control and the T/C (T/C endpoint: median survival time, dose: 6.0 mg/kg/injection, schedule: Q01DX009 (ip), vehicle: water) was 132 % of control. The survivor count (T/C endpoint: median survival time, dose: 12.5 mg/kg/injection, schedule: Q01DX009 (ip), vehicle: water) was 6 of 6, the survivor count (T/C endpoint: median survival time, dose: 24.0 mg/kg/injection, schedule: Q01DX009 (ip), vehicle: water) was 6 of 6 and the survivor count (T/C endpoint: median survival time, dose: 25.0 mg/kg/injection, schedule: Q01DX009 (ip), vehicle: water) was 6 of 6. The survivor count (T/C endpoint: median survival time, dose: 50.0 mg/kg/injection, schedule: Q01DX005 (oral), vehicle: water) was 6 of 6, the survivor count (T/C endpoint: median survival time, dose: 50.0 mg/kg/injection, schedule: Q01DX009 (ip), vehicle: water) was 5 of 6 and 6 of 6 and the survivor count (T/C endpoint: median survival time, dose: 100.0 mg/kg/injection, schedule: Q01DX005 (oral), vehicle: water) was 6 of 6. The survivor count (T/C endpoint: median survival time, dose: 100.0 mg/kg/injection, schedule: Q01DX009 (ip), vehicle: water) was 6 of 6, the survivor count (T/C endpoint: median survival time, dose: 200.0 mg/kg/injection, schedule: Q01DX005 (oral), vehicle: water) was 6 of 6 and the survivor count (T/C endpoint: median survival time, dose: 200.0 mg/kg/injection, schedule: Q01DX009 (ip), vehicle: water) was 1 of 6.
`NC(=O)C(Cc1ccccc1)NC(=O)c1ccccc1` (centres undefined) was tested, and the survivor count [4] was 6 of 6 and the survivor count [5] was 2 of 6.
`Cc1cn(C2CC(O)C(CO)O2)c(=O)nc1NC1CCCCCCCCCCC1` (centres undefined) was tested, and the survivor count (T/C endpoint: median survival time, dose: 200.0 mg/kg/injection, schedule: Q01DX005 (ip), vehicle: distilled water + Tween-80) was 2 of 6.
For `Nc1nc(N)n2nnnc2c1[N+](=O)[O-]`, the survivor count (T/C endpoint: mean survival time, dose: 200.0 mg/kg/injection, schedule: Q01DX001 (ip), vehicle: carboxymethylcellulose (CMC)) was 1 of 6 and the survivor count (T/C endpoint: mean survival time, dose: 400.0 mg/kg/injection, schedule: Q01DX001 (ip), vehicle: carboxymethylcellulose (CMC)) was 0 of 6.
For `CCOC1(OCC)C2C=CC1C(C#N)(C#N)C2(C#N)C#N`, the survivor count [7] was 0 of 6.
